# *: point of attachment. Boc = CC(C)(C)OC(=O)*; tBu = CC(C)(C)*
# Test: general procedure: solution-phase peptide synthesis; dicyclohexylcarbodiimide/N-hydroxysuccinimide; p-nitrophenyl esters; azide metho
# Conditions: of theory
Substance,oxidative folding yield (oxidative folding step),step yield (coupling step)
Boc-CS(tBu)NLS(tBu)T(tBu)CVL-OH (cysteine pairing not given here),83%,
Z-Asn-Leu-Asn-Asn-Phe-NH-NH-BOC,,88%
